# Data: PubChem BioAssay AID504834 (National Center for Advancing Translational Sciences (NCATS), 2011)
# The whole screen tested about 320,000 compounds, of which about 22,000 (6.9%) were called active. This list was built around the results that the source calls inconclusive (neither active nor inactive); the mix of calls is not that of the screen. The call rests on the fitted dose curve; in most records, active means well fitted inhibition curve with a large enough effect; inconclusive means small, poorly fitted or top-dose-only effect, or another doubt; inactive means no such curve, though single readings can be large or run the other way. Potencies of inconclusive entries are doubtful fits and often do not repeat.
# Assay: Primary qHTS for delayed death inhibitors of the malarial parasite plastid, 96 hour incubation
# Details: P. falciparum luciferase reporter growth; series mostly up to 28.7 µM; activity change, negative = inhibition: at the top concentration
# Summary of the method: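 Two parasite generations (96 h, 37 C, 5% CO2) of compound exposure in infected erythrocytes (0.05% parasitemia, 2% hematocrit). Luciferase-reporter P. falciparum; decreased luminescence indicates inhibited growth, aimed at apicoplast-acting delayed death.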
# On the % scale 0 is the no-effect control and ±100 the full control effect; potency means the concentration at half of the fitted maximal effect.
Structure (SMILES),Potency,"activity change, negative = inhibition"
CN(C)C(=O)COC(=O)c1cccc(CN2C(=O)c3ccccc3C2=O)c1,"inconclusive: 0.0522 µM [inhibitor, full curve, poor fit]",–
COc1ccc(CCn2c(=N)c(S(=O)(=O)c3ccc(C)cc3)cc3c(=O)n4ccccc4nc32)cc1,active: 3.7 µM,–
COc1ccc(CNS(=O)(=O)c2ccc(-c3ccc(=O)[nH]n3)s2)cc1OC,"inconclusive: 10.4 µM [inhibitor, single point]",–
O=C1NC(Cc2c[nH]c3ccccc23)C(=O)N1CCOc1ccccc1 (stereo unspecified),"inconclusive: 18.5 µM [inhibitor, single point]",–
COc1ccc(Cl)cc1NC(=O)C1CCCN(S(C)(=O)=O)C1 (stereo unspecified),–,inactive: 9.65%
O=C1CSC(=Nc2cccc(Cl)c2Cl)N1,"inconclusive: 10.4 µM [inhibitor, single point]",–
COc1ccc(CNC(=O)C2CCN(S(=O)(=O)c3cccc4cccnc34)CC2)cc1,–,inactive: -4.83%
Cc1ccc(C)c(NC(=O)CSc2nnc(-c3ccccc3)o2)c1,–,inactive: 38.8%
NC(=O)C1CCN(c2ccc(C(F)(F)F)cn2)CC1,"inconclusive: 4.65 µM [inhibitor, partial curve, poor fit]",–
CCn1c(C)c(CS(=O)(=O)c2ccccc2)[nH]c1=O,–,inactive: 17%
COc1ccccc1-n1c(CNC(=O)c2cccs2)n[nH]c1=S,"inconclusive: 18.5 µM [inhibitor, single point]",–
COCCNCc1nc2sc(C)c(-c3ccccc3)c2c(=O)[nH]1,–,inactive: 2.45%
C#CCOCCOCCOCCNc1nc(N2CCOCC2)nc(N2CCN(C(=O)[C@H]([C@@H](C)CC)n3cc([C@@H](N)Cc4ccc(O)cc4)nn3)CC2)n1,"inconclusive: 2.62 µM [inhibitor, full curve]",–
CCc1nnc(NC(=O)c2ccc(-c3ccc([N+](=O)[O-])cc3Cl)o2)s1,–,inactive: -17.2%
CCOC(=O)c1c(C)c(C(=O)NCc2ccco2)c(C)n1Cc1ccccc1,"inconclusive: 11.7 µM [inhibitor, single point]",–
COc1cccc(C2C3=C(N=c4s/c(=C\c5ccccc5O)c(=O)n42)c2ccccc2CC3)c1OC (stereo unspecified),active: 2.94 µM,–
C/C(=N\Nc1nc(C)cc(-c2ccccc2)n1)c1ccccc1,–,inactive: 328%
COc1ccc(-c2nc3ccccc3n2Cc2ccc(C)cc2)cc1,"inconclusive: 18.5 µM [inhibitor, single point]",–
Clc1ccc(N=NN2CCOCC2)cc1,–,inactive: 25.7%
CCOc1cc(C2c3c(oc4cc(C)c(Cl)cc4c3=O)C(=O)N2Cc2ccco2)ccc1O (stereo unspecified),–,inactive: 44.7%
O=C(Nc1ccccc1NC(=O)c1ccccc1Cl)c1ccccc1Cl,active: 14.7 µM,–
O=C(NCc1cccs1)c1cc(S(=O)(=O)N2CCOCC2)c(Cl)cc1Cl,"inconclusive: 0.0037 µM [inhibitor, full curve, poor fit]",–
COc1cc2c(cc1OC)C(COc1ccc(F)cc1)NCC2 (stereo unspecified),–,inactive: 9.46%
C=CCOc1c(Br)cc(CNc2ccc3[nH]c(=O)[nH]c3c2)cc1OCC,active: 10.4 µM,–
CCn1c2ccccc2c2cc(NC(=O)c3cc(C)on3)ccc21,"inconclusive: 10.4 µM [inhibitor, single point]",–
Cc1ccc(Nc2c([N+](=O)[O-])ccc3nonc23)c(C)c1,"inconclusive: 18.5 µM [inhibitor, single point]",–

Structure (SMILES),Potency,"activity change, negative = inhibition"
Cc1cc(O)c(C(=O)c2ccccc2C(=O)O)cc1C,"inconclusive: 4.65 µM [inhibitor, partial curve, poor fit]",–
CCOc1cc(/C=N/NC(=O)CSc2nncn2C)ccc1OCc1cccc(C)c1,"inconclusive: 14.7 µM [inhibitor, single point]",–
CCOc1ccccc1NC(=O)C(OC(=O)c1ccccc1NS(=O)(=O)c1cccs1)c1ccccc1 (stereo unspecified),"inconclusive: 10.4 µM [inhibitor, single point]",–
CCn1c(SCC(=O)Nc2nc(-c3ccccc3)cs2)nc2c1c(=O)n(C)c(=O)n2C,"inconclusive: 10.4 µM [inhibitor, single point]",–
COC(=O)C(CCCCNC(=O)c1ccc([N+](=O)[O-])cc1)NC(=O)c1ccc([N+](=O)[O-])cc1 (stereo unspecified),"inconclusive: 18.5 µM [inhibitor, single point]",–
CCOc1cc(C(=O)NCCCn2ccnc2)cc(OCC)c1OCC,"inconclusive: 10.4 µM [inhibitor, single point]",–
COc1ccccc1NC(=O)c1c([N+](=O)[O-])c(C(C)(C)C)nn1C,"inconclusive: 8.28 µM [inhibitor, partial curve, poor fit]",–
CCOC(=O)c1ccc(NC(=O)CN(c2ccc(C)cc2)S(=O)(=O)c2c(C)n[nH]c2C)cc1,–,inactive: 8.24%
Cc1nnc(NC(=O)C2CCN(c3cnccn3)CC2)s1,"inconclusive: 13.1 µM [inhibitor, partial curve, poor fit]",–
CC(OC(=O)c1ccc2c(c1)OCO2)C(=O)NC1CCCCC1C (stereo unspecified),–,inactive: 5.06%
CNC(=O)COC(=O)c1ccc([N+](=O)[O-])cc1Cl,–,inactive: 22.4%
CCOc1ccc(NC(=O)C(c2ccccn2)N(C(=O)CCl)c2ccc(OC)cc2)cc1 (stereo unspecified),"inconclusive: 18.5 µM [inhibitor, single point]",–
CCN(CC)c1ccc(C=Nc2ccc(C)cc2)c(O)c1,–,inactive: 11.1%
CCOc1ccccc1C(=O)N[C@H](C(=O)Nc1cc(S(=O)(=O)N(C)C)ccc1OC)C(C)C,"inconclusive: 18.5 µM [inhibitor, single point]",–
COc1cccc(C(O)c2nc3ccccc3n2C)c1 (stereo unspecified),"inconclusive: 18.5 µM [inhibitor, single point]",–
CCc1nn(C(C)C(=O)NCc2cccc(OC)c2)c(=O)c2cc3occc3n12 (stereo unspecified),"inconclusive: 10.4 µM [inhibitor, partial curve, poor fit]",–
COc1ccc(-n2c(-c3ccco3)n[nH]c2=S)cc1,–,inactive: -9.18%
COC(=O)c1ccc(NC(=O)c2c(Br)cnn2C)cc1,"inconclusive: 2.33 µM [inhibitor, partial curve, poor fit]",–
Cc1ccc(S(=O)(=O)N2CCOCC2)cc1C(=O)OCC(=O)N(Cc1ccccc1)C(C)C,"inconclusive: 3.29 µM [inhibitor, partial curve, poor fit]",–
c1ccc(C[n+]2cccc(-c3ccccc3)c2)cc1,active: 0.657 µM,–
O=C(Nc1ccc(F)cc1)C1COc2ccccc2O1 (stereo unspecified),–,inactive: 96.1%
O=S(=O)(Nc1ccc(F)cc1)c1cccc2nsnc12,–,inactive: -31.7%
O=C(C[n+]1ccccc1)N/N=C/c1cccc(Cl)c1Cl,"inconclusive: 18.5 µM [inhibitor, single point]",–
O=C(C[n+]1ccccc1)N/N=C/c1ccc(Br)cc1,active: 2.94 µM,–
CCOc1ccccc1N(CC(=O)Nc1ccc2c(c1)OCO2)S(C)(=O)=O,–,inactive: -2.59%
O=C1C(Cc2ccccc2)Nc2ncnc(N3CCN(c4ccccc4)CC3)c2N1Cc1ccccc1 (stereo unspecified),active: 2.94 µM,–

Structure (SMILES),Potency,"activity change, negative = inhibition"
CCCc1cc(=O)[nH]c(N/N=C/C=C\c2ccccc2)n1,–,inactive: 9.14%
COc1ccc(/C=C/C(=O)OCC(=O)NCCC2=CCCCC2)cc1S(=O)(=O)N1CCOCC1,–,inactive: -3.96%
COc1ccc(-n2nnc3c(SC(C(C)=O)C(=O)N(C)C)ncnc32)cc1 (stereo unspecified),"inconclusive: 14.7 µM [inhibitor, single point]",–
Oc1c(Br)cc(Br)cc1Oc1ccc(Br)cc1Br,active: 14.7 µM,–
CCOC(=O)c1cnc(/N=C/N(C)C)s1,–,inactive: 58.2%
COCCNC(=O)c1ccc2c(c1)CCN2S(C)(=O)=O,–,inactive: 5.37%
Cc1cccc(NC(=O)CSc2nnc(CNC(=O)c3ccco3)n2C)c1C,"inconclusive: 3.7 µM [inhibitor, partial curve, poor fit]",–
CC(C)C(NC(=O)c1c(F)cccc1F)C(=O)OCN1C(=O)c2ccccc2C1=O (stereo unspecified),–,inactive: 4.04%
COc1ccc(C(=O)NC(=S)NNC(=O)c2ccncc2)cc1Br,"inconclusive: 18.5 µM [inhibitor, single point]",–
COc1ccc(C2C3=C(CC(C)(C)CC3=O)Oc3ncn(CCCn4ccnc4)c(=N)c32)cc1 (stereo unspecified),active: 5.22 µM,–
CCOC(=O)c1c(C)nc(C)c(C(=O)OCC)c1-c1ccc(Br)cc1,active: 13.1 µM,–
Cc1ccc(CC(=O)N2CCN(c3ccccn3)CC2)cc1,–,inactive: -14.2%
CN(CC(=O)Nc1ccccc1Cl)C(=O)CCc1nc2ccccc2c(=O)[nH]1,"inconclusive: 18.5 µM [inhibitor, single point]",–
O=C1NC2(CCCCC2)C(=O)N1c1ccc(Cl)cc1,active: 4.65 µM,–
COc1ccc(-c2coc3cc(O)c(OC)cc3c2=O)cc1,–,inactive: 81.4%
CC(C)N(CC#CCC(O)(c1ccccc1)c1ccccc1)C(C)C,–,inactive: -2.18%
O=S(=O)(c1cccnc1)N1CCn2cccc2C1c1ccccc1F (stereo unspecified),–,inactive: 0.148%
Cc1cccc(CN2CCN(C(=O)CCl)CC2)c1,active: 0.0738 µM,–
Cc1ncsc1CCOC(=O)c1ccc(N2CCOCC2)c([N+](=O)[O-])c1,–,inactive: -4.8%
O=C(Cc1ccc(Br)cc1)NCc1ccccc1,"inconclusive: 10.4 µM [inhibitor, single point]",–
COc1cccc(/C=N/NC(=O)CSc2cccc3cccnc23)c1,"inconclusive: 11.7 µM [inhibitor, partial curve]",–
COc1ccc(CCNC(=O)c2c(O)c3ccccc3[nH]c2=O)cc1OC,–,inactive: -6.66%
COc1ccc(S(=O)(=O)Nc2cc3c(C(C)=O)c(C)oc3c3ccccc23)cc1,"inconclusive: 18.5 µM [inhibitor, single point]",–
O=C(NC1CCCc2ccccc21)c1ccc(=O)[nH]c1 (stereo unspecified),"inconclusive: 4.65 µM [inhibitor, partial curve, poor fit]",–

# Four compounds drawn at random from those above, as already listed:
Structure (SMILES),Potency,"activity change, negative = inhibition"
COc1ccc(Cl)cc1NC(=O)C1CCCN(S(C)(=O)=O)C1 (stereo unspecified),–,inactive: 9.65%
CCOC(=O)c1cnc(/N=C/N(C)C)s1,–,inactive: 58.2%
COc1ccc(-n2c(-c3ccco3)n[nH]c2=S)cc1,–,inactive: -9.18%
COc1ccc(/C=C/C(=O)OCC(=O)NCCC2=CCCCC2)cc1S(=O)(=O)N1CCOCC1,–,inactive: -3.96%
